# Results: PubChem BioAssay AID1362 (SRMLSC, 2008)
# The list shows a part of the results. Some tests of the compounds listed are not included; inactive here does not mean inactive elsewhere.
# Test: growth inhibition of WT strain, primary screen, mitochondrial fusion inhibitor project, WT and mutant strains, chemical genetic (AID 1362); further: tested in S. cerevisiae
# Conditions: mitochondrial fusion phenotypic screen, at 10 µM
row,Compound,inhibition
1,CC(C)N1C(=O)CC2(CCN(CCOC(=O)C(O)(c3ccccc3)c3ccccc3)CC2)C1=O,-0.57%
2,O=C(NCC1(N2CCCCC2)CCCCC1)c1cc([N+](=O)[O-])ccc1Cl,-1.29%
3,C=CCN1CCN(CCOC(=O)C(O)(c2ccccc2)c2ccccc2)CC1,-10.7%
4,CCN1CCCC(OC(=O)C2(O)c3ccccc3C=Cc3ccccc32)C1 (centres undefined),-6.87%
5,CN(C)C1CCCC1OC(=O)C(O)(c1ccccc1)c1ccccc1 (centres undefined),1.8%
6,Cc1ccccc1C(=O)NCC1(N2CCCCC2)CCCCC1,9.83%
7,COc1cccc(C(=O)NCC2(N3CCCCC3)CCCCC2)c1,19.2%
8,CN(C)c1cccc(C(=O)NCC2(N(C)C)CCCCC2)c1,-0.18%
9,O=C(OC1CN2CCC1CC2)C(CO)(c1ccccc1)c1ccccc1 (centres undefined),2.07%
